The target in experiment [1] is T1, William syndrome transcription factor (WSTF) (human (endogenous in HeLa)) (UniProt Q9UIG0).
T1 sequence: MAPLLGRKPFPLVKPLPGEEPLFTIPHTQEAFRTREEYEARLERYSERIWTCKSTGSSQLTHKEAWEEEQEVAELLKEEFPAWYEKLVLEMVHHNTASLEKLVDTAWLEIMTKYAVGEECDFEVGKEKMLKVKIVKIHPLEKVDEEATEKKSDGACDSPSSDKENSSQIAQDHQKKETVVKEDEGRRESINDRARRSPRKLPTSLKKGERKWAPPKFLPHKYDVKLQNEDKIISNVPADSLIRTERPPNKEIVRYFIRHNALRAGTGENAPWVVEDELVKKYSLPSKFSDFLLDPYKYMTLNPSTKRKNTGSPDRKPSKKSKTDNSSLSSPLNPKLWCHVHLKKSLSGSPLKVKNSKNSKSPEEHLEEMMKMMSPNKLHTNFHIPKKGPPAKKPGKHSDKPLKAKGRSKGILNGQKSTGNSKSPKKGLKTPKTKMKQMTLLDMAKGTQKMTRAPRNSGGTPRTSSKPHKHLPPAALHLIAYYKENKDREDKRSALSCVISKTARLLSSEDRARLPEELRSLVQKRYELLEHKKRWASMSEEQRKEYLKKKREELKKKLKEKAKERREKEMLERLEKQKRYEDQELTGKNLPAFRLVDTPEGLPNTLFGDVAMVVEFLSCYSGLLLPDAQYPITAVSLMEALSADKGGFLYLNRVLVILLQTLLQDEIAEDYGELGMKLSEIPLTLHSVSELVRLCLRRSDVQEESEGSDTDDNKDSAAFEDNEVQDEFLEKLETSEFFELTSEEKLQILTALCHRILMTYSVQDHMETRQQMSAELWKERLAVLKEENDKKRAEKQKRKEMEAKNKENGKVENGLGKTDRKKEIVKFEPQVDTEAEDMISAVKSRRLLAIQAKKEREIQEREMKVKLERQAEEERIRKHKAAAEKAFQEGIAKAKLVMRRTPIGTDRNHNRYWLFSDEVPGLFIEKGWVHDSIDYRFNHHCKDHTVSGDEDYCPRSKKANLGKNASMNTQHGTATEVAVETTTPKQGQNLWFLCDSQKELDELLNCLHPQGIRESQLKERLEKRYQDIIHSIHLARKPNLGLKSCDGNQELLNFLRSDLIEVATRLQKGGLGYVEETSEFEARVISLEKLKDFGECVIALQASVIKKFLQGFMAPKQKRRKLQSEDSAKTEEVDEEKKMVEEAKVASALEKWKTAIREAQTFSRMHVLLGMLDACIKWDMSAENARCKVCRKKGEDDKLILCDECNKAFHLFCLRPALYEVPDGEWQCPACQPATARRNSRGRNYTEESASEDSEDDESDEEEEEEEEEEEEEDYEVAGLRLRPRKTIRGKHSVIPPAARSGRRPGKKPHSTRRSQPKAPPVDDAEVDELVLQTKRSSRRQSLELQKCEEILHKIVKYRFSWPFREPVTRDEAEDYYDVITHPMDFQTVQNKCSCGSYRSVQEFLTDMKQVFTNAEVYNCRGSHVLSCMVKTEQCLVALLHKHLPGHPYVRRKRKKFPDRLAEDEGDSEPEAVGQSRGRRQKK
The experiment is described as follows: co-IP; HeLa nuclear extract prepared at 0.2 M KCl (200 to 300 ug), antibody over night, Protein A/G beads, immunoblot; IgG as control.

The chains behind the UniProt entries cited, without tags or fusion partners.
UniProt Q92831: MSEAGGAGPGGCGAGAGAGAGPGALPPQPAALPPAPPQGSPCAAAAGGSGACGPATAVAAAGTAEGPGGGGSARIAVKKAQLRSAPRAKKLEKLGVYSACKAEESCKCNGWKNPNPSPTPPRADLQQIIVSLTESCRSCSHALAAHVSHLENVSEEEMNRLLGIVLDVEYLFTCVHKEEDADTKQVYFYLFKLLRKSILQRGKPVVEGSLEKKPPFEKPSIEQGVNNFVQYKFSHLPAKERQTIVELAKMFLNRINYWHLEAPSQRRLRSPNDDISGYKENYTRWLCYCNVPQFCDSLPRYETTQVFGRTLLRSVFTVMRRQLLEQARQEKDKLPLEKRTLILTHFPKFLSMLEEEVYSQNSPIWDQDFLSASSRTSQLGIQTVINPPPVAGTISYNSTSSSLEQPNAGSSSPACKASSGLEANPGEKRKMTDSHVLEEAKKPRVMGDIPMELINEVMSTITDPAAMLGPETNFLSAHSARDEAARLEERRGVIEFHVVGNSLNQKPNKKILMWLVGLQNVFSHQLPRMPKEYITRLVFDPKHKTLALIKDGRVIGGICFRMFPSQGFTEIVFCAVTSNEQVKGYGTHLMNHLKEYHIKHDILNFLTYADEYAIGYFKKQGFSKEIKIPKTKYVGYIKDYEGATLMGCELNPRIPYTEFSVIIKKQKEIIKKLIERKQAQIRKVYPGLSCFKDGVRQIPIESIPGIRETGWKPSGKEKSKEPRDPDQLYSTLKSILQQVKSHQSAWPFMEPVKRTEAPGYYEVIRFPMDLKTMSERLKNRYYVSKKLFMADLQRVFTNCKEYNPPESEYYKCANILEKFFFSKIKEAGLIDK
UniProt Q92830: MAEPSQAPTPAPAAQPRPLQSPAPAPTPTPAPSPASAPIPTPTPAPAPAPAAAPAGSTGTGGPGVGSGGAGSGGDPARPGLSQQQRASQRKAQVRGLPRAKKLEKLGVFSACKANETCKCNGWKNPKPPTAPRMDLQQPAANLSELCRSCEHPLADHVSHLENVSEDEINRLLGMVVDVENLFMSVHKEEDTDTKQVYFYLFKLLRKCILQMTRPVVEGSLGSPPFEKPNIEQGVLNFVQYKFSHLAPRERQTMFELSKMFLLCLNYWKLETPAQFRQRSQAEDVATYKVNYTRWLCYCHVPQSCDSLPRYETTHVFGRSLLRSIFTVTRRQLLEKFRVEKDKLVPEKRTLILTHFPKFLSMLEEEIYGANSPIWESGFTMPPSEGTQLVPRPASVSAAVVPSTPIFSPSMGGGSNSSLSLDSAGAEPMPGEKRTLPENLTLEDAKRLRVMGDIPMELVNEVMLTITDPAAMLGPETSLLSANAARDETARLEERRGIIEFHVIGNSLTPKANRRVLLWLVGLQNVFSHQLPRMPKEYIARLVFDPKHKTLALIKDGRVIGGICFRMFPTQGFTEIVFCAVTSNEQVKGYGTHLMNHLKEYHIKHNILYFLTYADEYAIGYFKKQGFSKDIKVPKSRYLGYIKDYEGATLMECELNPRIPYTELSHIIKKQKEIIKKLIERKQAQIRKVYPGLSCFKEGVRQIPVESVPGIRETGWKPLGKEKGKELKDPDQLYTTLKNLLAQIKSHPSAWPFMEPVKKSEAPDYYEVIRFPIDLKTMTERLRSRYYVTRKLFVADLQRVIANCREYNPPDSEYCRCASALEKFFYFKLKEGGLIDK
UniProt Q09472: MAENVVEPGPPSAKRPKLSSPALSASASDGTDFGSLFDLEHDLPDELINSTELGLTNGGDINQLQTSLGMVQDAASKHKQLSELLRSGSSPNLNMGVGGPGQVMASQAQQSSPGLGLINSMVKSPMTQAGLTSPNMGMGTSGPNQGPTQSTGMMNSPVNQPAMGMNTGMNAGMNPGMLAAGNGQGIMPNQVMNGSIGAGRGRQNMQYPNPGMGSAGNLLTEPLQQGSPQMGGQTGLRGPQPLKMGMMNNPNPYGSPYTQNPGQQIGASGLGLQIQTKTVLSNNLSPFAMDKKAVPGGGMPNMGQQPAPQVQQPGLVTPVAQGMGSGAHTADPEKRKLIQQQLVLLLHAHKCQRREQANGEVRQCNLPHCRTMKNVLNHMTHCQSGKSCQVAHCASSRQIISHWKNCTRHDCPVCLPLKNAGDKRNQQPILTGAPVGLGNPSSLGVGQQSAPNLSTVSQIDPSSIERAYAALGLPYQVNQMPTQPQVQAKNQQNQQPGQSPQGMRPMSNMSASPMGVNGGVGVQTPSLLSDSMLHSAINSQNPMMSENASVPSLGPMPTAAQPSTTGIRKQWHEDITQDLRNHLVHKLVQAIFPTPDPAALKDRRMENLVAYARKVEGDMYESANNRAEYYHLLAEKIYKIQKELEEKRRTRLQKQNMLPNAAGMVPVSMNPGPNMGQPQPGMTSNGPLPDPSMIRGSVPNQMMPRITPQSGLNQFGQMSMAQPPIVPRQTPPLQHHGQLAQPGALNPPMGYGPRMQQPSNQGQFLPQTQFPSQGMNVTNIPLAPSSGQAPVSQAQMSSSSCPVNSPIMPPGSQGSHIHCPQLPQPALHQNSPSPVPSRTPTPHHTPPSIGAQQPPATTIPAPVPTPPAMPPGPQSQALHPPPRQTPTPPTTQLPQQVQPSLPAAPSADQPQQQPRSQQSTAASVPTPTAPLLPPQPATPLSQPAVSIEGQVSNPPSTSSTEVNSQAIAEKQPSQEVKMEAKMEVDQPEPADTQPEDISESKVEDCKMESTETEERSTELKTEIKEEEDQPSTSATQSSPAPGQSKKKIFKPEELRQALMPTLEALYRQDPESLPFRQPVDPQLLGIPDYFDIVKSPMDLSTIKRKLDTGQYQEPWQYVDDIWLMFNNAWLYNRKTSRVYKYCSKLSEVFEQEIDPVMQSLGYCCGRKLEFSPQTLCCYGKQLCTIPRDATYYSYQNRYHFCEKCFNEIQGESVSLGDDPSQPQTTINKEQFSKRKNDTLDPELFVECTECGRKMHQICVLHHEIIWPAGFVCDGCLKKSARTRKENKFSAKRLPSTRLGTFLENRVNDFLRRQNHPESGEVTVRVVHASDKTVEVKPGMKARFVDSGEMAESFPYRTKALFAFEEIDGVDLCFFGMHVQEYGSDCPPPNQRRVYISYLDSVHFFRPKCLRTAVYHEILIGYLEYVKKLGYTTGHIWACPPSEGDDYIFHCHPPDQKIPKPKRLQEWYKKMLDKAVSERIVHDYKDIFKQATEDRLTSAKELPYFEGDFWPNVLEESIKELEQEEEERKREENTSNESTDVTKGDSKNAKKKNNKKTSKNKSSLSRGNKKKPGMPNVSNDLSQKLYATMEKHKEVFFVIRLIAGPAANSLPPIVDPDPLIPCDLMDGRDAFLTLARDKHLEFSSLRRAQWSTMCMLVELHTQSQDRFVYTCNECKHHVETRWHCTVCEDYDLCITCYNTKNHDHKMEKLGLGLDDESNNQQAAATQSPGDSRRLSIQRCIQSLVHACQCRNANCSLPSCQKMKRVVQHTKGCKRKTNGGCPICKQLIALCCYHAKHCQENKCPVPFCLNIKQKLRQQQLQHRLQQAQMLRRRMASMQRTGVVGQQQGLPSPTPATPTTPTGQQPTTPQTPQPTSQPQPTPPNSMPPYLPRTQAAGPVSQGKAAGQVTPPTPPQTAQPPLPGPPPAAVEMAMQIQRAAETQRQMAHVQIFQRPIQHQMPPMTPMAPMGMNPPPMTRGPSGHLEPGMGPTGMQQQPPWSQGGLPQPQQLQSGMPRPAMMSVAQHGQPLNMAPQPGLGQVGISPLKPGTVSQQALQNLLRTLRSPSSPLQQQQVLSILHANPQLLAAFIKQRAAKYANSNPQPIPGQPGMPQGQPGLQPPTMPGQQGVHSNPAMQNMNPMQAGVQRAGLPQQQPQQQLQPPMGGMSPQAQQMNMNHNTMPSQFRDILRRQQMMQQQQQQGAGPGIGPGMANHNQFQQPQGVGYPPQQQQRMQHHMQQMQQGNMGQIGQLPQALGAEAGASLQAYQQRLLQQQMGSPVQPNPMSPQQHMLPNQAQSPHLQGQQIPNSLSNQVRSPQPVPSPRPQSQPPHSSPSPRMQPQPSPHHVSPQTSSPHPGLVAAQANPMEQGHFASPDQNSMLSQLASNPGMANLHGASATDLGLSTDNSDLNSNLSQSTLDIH

In experiment [2] the target is T1, William syndrome transcription factor (WSTF) (human (endogenous in HeLa)). The experiment is described as follows: co-IP; HeLa nuclear extract prepared at 0.7 M KCl (200 to 300 ug), antibody over night, Protein A/G beads, immunoblot; IgG as control.

These are yes or no findings as the source states them, for the method shown. Binding seen in cells or lysates may run through a third protein. Some entries that bind do so weakly or less than the wild type.

As to PCAF (from UniProt Q92831 1-832), the binding entry in experiment [1] is on record as “binds weakly”.

Take TRRAP (from UniProt Q9Y4A5 1-3859): the binding result in experiment [2] and in experiment [1] was “binds weakly” throughout.

hGCN5 (from UniProt Q92830 1-837): the binding entry in experiment [2] and in experiment [1] was “no binding” each time.

As for p300 (from UniProt Q09472 1-2414), the binding entry in experiment [2] and in experiment [1] was “no binding” throughout.

For the origin of these results see publication PMC3084792.
